No constants are given. Whether binding was seen depends on the method and setting. In cells and extracts the contact can be indirect. Some results given as binding are weak or reduced against the parent protein; the word gives no strength.
Target: hypoxia-inducible factor (HIF)-1α (human (endogenous in placenta)) (UniProt Q16665)
Assay: co-IP; anti-HIF-1α as pull-down antibody (4 µg) on placental lysates of SPT, IUGR and PE pregnancies (n = 3 each); 400 mg total protein lysate as printed, 1000 mg of SPT proteins to equalise the number of HIF complexes; immunoblot for Sprouty2

Amino acid sequences for entries named in this document (tags omitted).
UniProt Q16665: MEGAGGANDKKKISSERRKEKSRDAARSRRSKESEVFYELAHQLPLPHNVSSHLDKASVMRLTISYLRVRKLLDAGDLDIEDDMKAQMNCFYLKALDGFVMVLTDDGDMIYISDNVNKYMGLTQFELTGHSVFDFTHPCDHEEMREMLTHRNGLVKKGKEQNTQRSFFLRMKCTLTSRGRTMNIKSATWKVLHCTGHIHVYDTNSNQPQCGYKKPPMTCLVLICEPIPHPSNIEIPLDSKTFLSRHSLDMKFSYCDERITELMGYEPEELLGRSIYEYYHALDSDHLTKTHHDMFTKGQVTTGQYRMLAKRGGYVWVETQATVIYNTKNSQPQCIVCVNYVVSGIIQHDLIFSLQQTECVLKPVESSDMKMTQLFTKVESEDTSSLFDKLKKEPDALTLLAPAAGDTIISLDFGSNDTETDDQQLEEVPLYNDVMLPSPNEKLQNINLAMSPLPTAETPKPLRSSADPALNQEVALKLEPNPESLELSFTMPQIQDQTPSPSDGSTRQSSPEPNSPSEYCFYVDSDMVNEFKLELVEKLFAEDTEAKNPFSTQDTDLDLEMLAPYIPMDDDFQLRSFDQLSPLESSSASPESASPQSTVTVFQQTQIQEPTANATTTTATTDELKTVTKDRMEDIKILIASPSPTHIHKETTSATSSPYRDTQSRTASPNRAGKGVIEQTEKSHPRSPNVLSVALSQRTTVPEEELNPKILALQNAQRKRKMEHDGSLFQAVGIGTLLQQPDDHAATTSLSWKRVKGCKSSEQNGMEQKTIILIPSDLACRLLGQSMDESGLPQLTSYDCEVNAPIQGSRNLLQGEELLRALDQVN

B1: Sprouty2 (protein, UniProt O43597 1-315)
chain: MEARAQSGNGSQPLLQTPRDGGRQRGEPDPRDALTQQVHVLSLDQIRAIRNTNEYTEGPTVVPRPGLKPAPRPSTQHKHERLHGLPEHRQPPRLQHSQVHSSARAPLSRSISTVSSGSRSSTRTSTSSSSSEQRLLGSSFSSGPVADGIIRVQPKSELKPGELKPLSKEDLGLHAYRCEDCGKCKCKECTYPRPLPSDWICDKQCLCSAQNVIDYGTCVCCVKGLFYHCSNDDEDNCADNPCSCSQSHCCTRWSAMGVMSLFLPCLWCYLPAKGCLKLCQGCYDRVNRPGCRCKNSNTVCCKVPTVPPRNFEKPT
- binding: binds
